{"sequences": {"note": "The chains behind the UniProt entries cited, without tags or fusion partners.", "UniProt P09471, whole entry, looked up": "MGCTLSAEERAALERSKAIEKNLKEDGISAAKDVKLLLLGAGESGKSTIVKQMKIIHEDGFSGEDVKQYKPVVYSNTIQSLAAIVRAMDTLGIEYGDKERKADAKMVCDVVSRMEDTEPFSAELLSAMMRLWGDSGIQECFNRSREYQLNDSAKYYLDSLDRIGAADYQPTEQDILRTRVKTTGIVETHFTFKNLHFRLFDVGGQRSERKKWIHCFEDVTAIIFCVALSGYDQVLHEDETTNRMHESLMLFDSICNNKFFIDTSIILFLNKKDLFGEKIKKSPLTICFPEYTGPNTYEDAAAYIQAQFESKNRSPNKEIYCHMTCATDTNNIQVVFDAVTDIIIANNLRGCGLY"}, "source": "PubChem BioAssay AID1439", "about": "(NMMLSC, 2008)", "note": "The campaign covered roughly 220,000 compounds. About 770 (0.35%) were called active. The inconclusive results got no clear call from the source; some entries with a clear call stand among them for comparison. No stated cut-off is given here; in the data, active means binding response below about 49% or above about 150%; inconclusive means no clear call, values can overlap the other calls; inactive means in between."}
{"biological_target": "Guanine nucleotide-binding protein G(o) subunit alpha (Homo sapiens) (UniProt P09471)", "assay": "RGS7-Galphao binding modulators, primary screen, biochemical, multiplexed bead flow cytometry (AID 1439);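 further: fluorescent Galphao held in activated GDP-AlF4 state binding bead-coupled RGS7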", "conditions": "at 10 µM, actives lie on both sides"}
{"smiles": "CCc1cccc2[nH]c3cc([N+](=O)[O-])ccc3c12", "binding response (% of control)": "inconclusive: 157%"}
{"smiles": "C=C(C)CNC(=S)N/N=C/c1ccc([N+](=O)[O-])cc1", "binding response (% of control)": "inconclusive: 101%"}
{"smiles": "C[C@H](O)CC1=C[C@H](O)[C@@H](C)OC1=O", "binding response (% of control)": "inactive: 92.2%"}
{"smiles": "Cc1nnc2n(c1=O)N=C(c1ccc(Cl)cc1)CS2", "binding response (% of control)": "inactive: 98%"}
{"smiles": "O=C(NCC1CC1)Nc1cccs1", "binding response (% of control)": "inconclusive: 102%"}
{"smiles": "COc1ccc(Cn2cc(F)c(=O)n(C)c2=O)cc1[N+](=O)[O-]", "binding response (% of control)": "inconclusive: 39.1%"}
{"smiles": "Cc1ccc(NC(=S)N(CCCN2CCOCC2)Cc2cccnc2)cc1C", "binding response (% of control)": "inconclusive: 103%"}
{"smiles": "O=C(O)c1ccccc1SCc1nc2ccccn2c1Br", "binding response (% of control)": "inconclusive: 115%"}
{"smiles": "CCC(=O)N=c1ccn(C2=Nc3ccccc3NC2=C(C#N)C#N)cc1", "binding response (% of control)": "inconclusive: 93.7%"}
{"smiles": "COc1ccc(C2CCCN2C(=S)Nc2ccc(C)cc2Cl)cc1OC", "note": "(stereo not drawn)", "binding response (% of control)": "inactive: 113%"}
{"smiles": "CN(C)c1ccc(C2NCCS2)cc1", "note": "(stereo not drawn)", "binding response (% of control)": "active: 27.4%"}
{"smiles": "O=C(/C=C/c1c(Cl)nc2ccccn12)N1CCN(c2ccc(F)cc2)CC1", "binding response (% of control)": "inconclusive: 94.6%"}
{"smiles": "CCOC(=O)c1cn2nc(N3CCCCC3)ccc2n1", "binding response (% of control)": "inconclusive: 73.8%"}
{"smiles": "CN1CCN(CC(=O)NN(Cc2ccccc2)c2ccccc2)CC1", "binding response (% of control)": "inconclusive: 92.9%"}
{"smiles": "CC1CCC(NC(=O)C2(C)CCC(=O)N2Cc2cccnc2)CC1", "note": "(stereo not drawn)", "binding response (% of control)": "inactive: 105%"}
{"smiles": "CCOC(=O)c1c(NC(=O)COC)sc(C(C)=O)c1C", "binding response (% of control)": "inactive: 104%"}
{"smiles": "Cc1cc(=S)cc(C)n1CCO", "binding response (% of control)": "inactive: 104%"}
{"smiles": "O=C1CC(N2CCc3ccccc32)C(=O)N1c1ccc(F)cc1", "note": "(stereo not drawn)", "binding response (% of control)": "inactive: 97.8%"}
{"smiles": "Cc1ccc(NC(=S)NNC(=O)c2nnn(-c3ccccc3)c2C)cc1", "binding response (% of control)": "inactive: 97.6%"}
{"smiles": "C=CCOc1cccc(CNc2cccc(C(=O)O)c2)c1", "binding response (% of control)": "inconclusive: 119%"}
{"smiles": "Cn1c(NC(=O)c2ccc(F)cc2)c(-c2cccs2)c(=O)c2ccccc21", "binding response (% of control)": "inconclusive: 122%"}
{"smiles": "CCCCc1nc2sc3c(=O)n(N)cnc3c2c2c1CCC2", "binding response (% of control)": "inconclusive: 86.2%"}
{"smiles": "CCCCN(CCCC)CC(O)COc1ccc(Br)cc1", "note": "(stereo not drawn)", "binding response (% of control)": "inconclusive: 94.5%"}
{"smiles": "Cc1ccccc1S(=O)(=O)c1cc2ccccc2nc1N", "binding response (% of control)": "inconclusive: 94.2%"}
{"smiles": "O=C(CCC(=O)N(CC(=O)NC1CCCCC1)Cc1cccs1)Nc1ccccn1", "binding response (% of control)": "inactive: 82.8%"}
{"smiles": "Cc1cc(C)c2nncn2n1", "binding response (% of control)": "inconclusive: 122%"}
{"smiles": "CCc1c(O)nc(SCC(=O)Nc2nc3ccccc3s2)n(-c2ccc(C)cc2)c1=O", "binding response (% of control)": "inconclusive: 103%"}
{"smiles": "Cn1c(=S)c2[nH]c(SCCN3CCCC3)nc2n(C)c1=O", "binding response (% of control)": "inconclusive: 84.4%"}
{"smiles": "COc1ccc(NC(=O)c2ccc(CNc3c(N4CCCC4)c(=O)c3=O)cc2)cc1Cl", "binding response (% of control)": "inconclusive: 251%"}
{"smiles": "O=C(Cn1c2ccccc2c(=O)c2ccccc21)N/N=C/c1ccc(N2CCCC2)c([N+](=O)[O-])c1", "binding response (% of control)": "inactive: 90%"}
{"smiles": "COc1ccc(CCN2C(=NC(=O)C(C)C)SC3CS(=O)(=O)CC32)cc1", "note": "(stereo not drawn)", "binding response (% of control)": "inconclusive: 101%"}
{"smiles": "COCCN(C(=O)CCCC(=O)Nc1ccccn1)C(C(=O)NC1CCCCC1)c1ccc(C)cc1", "note": "(stereo not drawn)", "binding response (% of control)": "inactive: 111%"}
{"smiles": "CC(O)CNC12CC3CC(CC(C3)C1)C2", "note": "(stereo not drawn)", "binding response (% of control)": "inactive: 90.6%"}
{"smiles": "N#Cc1ccsc1NC(=O)COC(=O)c1ccc(NC(N)=O)cc1", "binding response (% of control)": "inconclusive: 110%"}
{"smiles": "CCOC(=O)c1cc(-c2ccc(OC)cc2)nc2c1c(C)nn2CCC#N", "binding response (% of control)": "inactive: 105%"}
{"smiles": "Cc1cc(=O)[nH]c(N)n1", "binding response (% of control)": "inconclusive: 58.1%"}
{"smiles": "COCCCNC(=O)c1cc(C)nn1-c1ccccc1", "binding response (% of control)": "inconclusive: 107%"}
{"smiles": "O=C(CSc1ccc2ccccc2n1)Nc1ccc(N2CCOCC2)cc1", "binding response (% of control)": "inconclusive: 102%"}
{"smiles": "CCOC(=O)c1cccc(-n2c(C)nc3ccccc3c2=O)c1", "binding response (% of control)": "inactive: 99.7%"}
{"smiles": "CCOc1ncccc1C(=O)OC(C)C(=O)Nc1ccc(CC)cc1", "note": "(stereo not drawn)", "binding response (% of control)": "inconclusive: 60.5%"}
{"smiles": "CCc1c(C)nc(SCC(=O)N2CCCCC2CC)[nH]c1=O", "note": "(stereo not drawn)", "binding response (% of control)": "inconclusive: 96.5%"}
{"smiles": "CC(C)N(C(=O)Cc1ccccc1[N+](=O)[O-])C(C)C", "binding response (% of control)": "inconclusive: 118%"}
{"smiles": "CCOc1ccc(N2CC(C(=O)N/N=C/c3sccc3C)CC2=O)cc1", "note": "(stereo not drawn)", "binding response (% of control)": "inconclusive: 98.4%"}
{"smiles": "CCC(C)NC(=O)C1CCN(S(=O)(=O)c2cc([N+](=O)[O-])ccc2Cl)CC1", "note": "(stereo not drawn)", "binding response (% of control)": "inconclusive: 109%"}
{"smiles": "N#Cc1ccsc1NC(=O)CCc1ccccc1", "binding response (% of control)": "inconclusive: 117%"}
{"smiles": "COCCn1c(SCC(=O)Nc2nnc(C)s2)nnc1-c1ccoc1C", "binding response (% of control)": "inconclusive: 116%"}
{"smiles": "CS(=O)(=O)NCc1ccc(C(=O)O)cc1", "binding response (% of control)": "inactive: 103%"}
{"smiles": "Cc1ccc(C(=O)CSc2nc3ccc(C(=O)NCCN4CCCCC4)cc3c(=O)[nH]2)cc1", "binding response (% of control)": "inconclusive: 108%"}
